Results deposited as PubChem BioAssay AID602196 (INSERM, 2012).

- Screen: 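Genes whose knock-down alters cisplatin killing of lung cancer cells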
- Cell system: human A549 lung cancer cells
- Reagents: siRNA pair against human genes
- Duration: 48 h transfection before cisplatin; time from cisplatin to read-out not stated
- Challenge: cisplatin at a dose killing half of control-siRNA cells; exact dose and duration not given
- Detection: 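Cisplatin cell death as a shift from the 50% death seen with control siRNA; siRNAs toxic or growth-blocking alone scored 0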
- Reading the numbers: two-siRNA summed score (-2 to +2): higher = both siRNAs protect from cisplatin killing; -2 means both sensitise
- Rule for the call: 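Each siRNA scores 0 if harmful alone by LDH or WST-1, otherwise +1 if it reduces and -1 if it increases cisplatin killing; a gene is active when both siRNAs agree (sum +2 or -2)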
- Meaning of the calls: active = both siRNAs shift cisplatin killing the same way; inactive = no consistent shift, or siRNA harmful alone
Shown is a random part of about 23,000 reagents tested. 455 of all reagents (2%) were called active. 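Active includes both protection and sensitisation; some change values fall well beyond the stated -50 to +50 range.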 Not all columns of the deposit are shown. The record does not give: the amount of reagent.

| gene | two-siRNA summed score (-2 to +2) | activity call |
| --- | --- | --- |
| ZNF571 (zinc finger protein 571) | 0 | inactive |
| HPSE2 (heparanase 2 (inactive)) | 0 | inactive |
| PIGK (phosphatidylinositol glycan anchor biosynthesis class K) | 0 | inactive |
| LOC391092 (PRAME family member 17 pseudogene) | 0 | inactive |
| CCDC43 (coiled-coil domain containing 43) | 0 | inactive |
| LOC440418 | 1 | inactive |
| UBE2E3 (ubiquitin conjugating enzyme E2 E3) | 0 | inactive |
| TRIM37 (tripartite motif containing 37) | 1 | inactive |
| AKAP5 (A-kinase anchoring protein 5) | 0 | inactive |
| LGR6 (leucine rich repeat containing G protein-coupled receptor 6) | 0 | inactive |
| C9orf78 (chromosome 9 open reading frame 78) | 0 | inactive |
| COA5 (cytochrome c oxidase assembly factor 5) | -1 | inactive |
| LOC390245 | 2 | active |
| LOC440090 | 0 | inactive |
| LOC389447 | 0 | inactive |

Reagents listed above called active, once more:
| gene | two-siRNA summed score (-2 to +2) | activity call |
| --- | --- | --- |
| LOC390245 | 2 | active |

Next entries:
| gene | two-siRNA summed score (-2 to +2) | activity call |
| --- | --- | --- |
| SNRPA1 (small nuclear ribonucleoprotein polypeptide A') | -1 | inactive |
| GLDN (gliomedin) | 0 | inactive |
| MSMB (microseminoprotein beta) | 0 | inactive |
| IL4I1 (interleukin 4 induced 1) | 0 | inactive |
| BOK (BCL2 family apoptosis regulator BOK) | 0 | inactive |
| PNPLA3 | 1 | inactive |
| GMFG (glia maturation factor gamma) | -1 | inactive |
| RNASE1 (ribonuclease A family member 1, pancreatic) | 0 | inactive |
| SLC5A10 | 0 | inactive |
| MROH2B (maestro heat like repeat family member 2B) | 0 | inactive |
| TEKT4 (tektin 4) | 0 | inactive |
| LOC440798 | 0 | inactive |
| PTPN3 (protein tyrosine phosphatase non-receptor type 3) | 1 | inactive |
| CCDC3 (coiled-coil domain containing 3) | -1 | inactive |
| TLN2 (talin 2) | 1 | inactive |
| LOC391075 | 0 | inactive |
| FLT1P1 (FLT1 pseudogene 1) | 0 | inactive |
| MAP1LC3A (microtubule associated protein 1 light chain 3 alpha) | 1 | inactive |
| TIGD6 (tigger transposable element derived 6) | 0 | inactive |
| WBP1 (WW domain binding protein 1) | 0 | inactive |
| LONRF1 (LON peptidase N-terminal domain and ring finger 1) | 0 | inactive |
| RWDD3 (RWD domain containing 3) | 0 | inactive |
| EBI3 (Epstein-Barr virus induced 3) | 0 | inactive |
| ADRA1A (adrenoceptor alpha 1A) | 1 | inactive |
